Results as given in patent US8709738B2, “Methods for predicting cardiac toxicity” (Quintiles Transnational Corporation, priority 2006, dated 2014).
For at least one compound, name, drawing or mass did not settle the structure.

System: Au565 cells
Test: p-eEF-2 expression by IHC
Format: cell-based
Conditions: FIG. 7B
Source text: FIG. 7B is a photograph of stained cells showing the expression of p-eEF2 in Au565 cells in the presence of various compounds.

With `CO[C@H]1C[C@@H]2CC[C@@H](C)[C@@](O)(O2)C(=O)C(=O)N2CCCC[C@H]2C(=O)O[C@H]([C@H](C)C[C@@H]2CC[C@@H](O)[C@H](OC)C2)CC(=O)[C@H](C)/C=C(\C)[C@@H](O)[C@@H](OC)C(=O)[C@H](C)C[C@H](C)/C=C/C=C/C=C/1C` [rapamycin] as the molecule, how does the “p-eEF-2 expression by IHC” value read?
The value was “do”.
